The test deals with Translocase of the Outer Mitochondrial Membrane (TOM) complex (human (endogenous in U2OS)) (UniProt O96008). The test is described as follows: native gel or EMSA. On the technique in general: Mobility shift assays separate free from complexed probe on a gel.

Chains of the proteins cited; added tags and fusions are not shown. Lines headed by an entry give the natural chain unless they say otherwise; changes in a name come on top.
UniProt O96008: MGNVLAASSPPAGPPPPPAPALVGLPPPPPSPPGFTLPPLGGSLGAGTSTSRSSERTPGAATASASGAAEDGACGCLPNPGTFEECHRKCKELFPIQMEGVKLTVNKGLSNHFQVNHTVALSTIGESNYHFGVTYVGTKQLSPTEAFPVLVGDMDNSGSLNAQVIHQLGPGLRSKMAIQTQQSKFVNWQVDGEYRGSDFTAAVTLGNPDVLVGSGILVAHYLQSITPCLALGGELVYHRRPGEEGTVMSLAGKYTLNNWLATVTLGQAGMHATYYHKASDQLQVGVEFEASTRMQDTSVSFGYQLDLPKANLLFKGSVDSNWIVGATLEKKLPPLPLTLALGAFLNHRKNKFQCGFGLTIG
UniProt Q9BXM7: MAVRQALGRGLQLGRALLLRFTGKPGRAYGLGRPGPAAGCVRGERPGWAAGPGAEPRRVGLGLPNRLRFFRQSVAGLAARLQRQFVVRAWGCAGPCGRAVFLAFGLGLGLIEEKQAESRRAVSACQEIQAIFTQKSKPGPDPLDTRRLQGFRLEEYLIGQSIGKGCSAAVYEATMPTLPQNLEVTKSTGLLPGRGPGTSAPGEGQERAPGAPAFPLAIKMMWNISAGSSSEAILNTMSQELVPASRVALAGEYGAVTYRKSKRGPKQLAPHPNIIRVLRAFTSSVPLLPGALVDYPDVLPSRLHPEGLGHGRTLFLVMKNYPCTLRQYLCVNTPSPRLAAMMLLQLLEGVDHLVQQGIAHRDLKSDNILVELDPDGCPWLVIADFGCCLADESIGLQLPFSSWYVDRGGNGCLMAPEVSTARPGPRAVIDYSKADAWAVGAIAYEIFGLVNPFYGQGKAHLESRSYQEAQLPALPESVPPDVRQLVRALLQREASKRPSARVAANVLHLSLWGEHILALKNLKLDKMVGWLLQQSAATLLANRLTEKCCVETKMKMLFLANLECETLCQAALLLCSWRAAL

This is an account of results in publication doi:10.1101/2021.08.05.455304.

These are yes or no findings as the source states them, for the method shown. Some binding calls cover weakened binding; strength is not graded here.

As to “human PINK1(WT)-3HA (from UniProt Q9BXM7 1-581) (enzyme)”, the binding entry is on record as “binds”.
